These are yes or no findings as the source states them, for the method shown. Binding seen in cells or lysates may run through a third protein. Some results given as binding are weak or reduced against the parent protein; the word gives no strength. Tags and fused reporters may be left off the sequences shown.
Target: T1, epidermal growth factor latrophilin and seven transmembrane domain-containing protein 1 (ELTD1), Flag-tagged (human) (UniProt Q9HBW9)
T1 sequence: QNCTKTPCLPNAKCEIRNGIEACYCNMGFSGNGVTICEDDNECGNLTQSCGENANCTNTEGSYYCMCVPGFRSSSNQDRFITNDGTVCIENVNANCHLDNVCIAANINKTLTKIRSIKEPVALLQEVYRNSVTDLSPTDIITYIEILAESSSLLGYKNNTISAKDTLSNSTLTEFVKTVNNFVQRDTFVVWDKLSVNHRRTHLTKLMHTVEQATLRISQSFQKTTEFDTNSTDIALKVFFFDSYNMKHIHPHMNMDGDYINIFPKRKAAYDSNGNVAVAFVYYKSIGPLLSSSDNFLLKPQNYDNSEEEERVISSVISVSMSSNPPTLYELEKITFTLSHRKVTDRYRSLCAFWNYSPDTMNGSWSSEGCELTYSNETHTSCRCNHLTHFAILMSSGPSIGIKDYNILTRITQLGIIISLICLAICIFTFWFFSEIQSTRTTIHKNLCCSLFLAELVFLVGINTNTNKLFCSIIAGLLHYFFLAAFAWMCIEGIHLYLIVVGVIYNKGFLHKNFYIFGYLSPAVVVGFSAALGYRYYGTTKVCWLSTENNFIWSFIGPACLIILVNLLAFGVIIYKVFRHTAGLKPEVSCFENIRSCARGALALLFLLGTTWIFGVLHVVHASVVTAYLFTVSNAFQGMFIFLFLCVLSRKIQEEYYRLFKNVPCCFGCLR
Assay: co-IP; lysate in GPCR extraction and stabilization reagent with protease inhibitors, anti-Flag M2 magnetic beads at 4 °C overnight, washed with TBS, western blotting

B1: HPIP (hematopoietic PBX1-interacting protein) (protein, UniProt Q96AQ6 1-731)
chain: MASCPDSDNSWVLAGSESLPVETLGPASRMDPESERALQAPHSPSKTDGKELAGTMDGEGTLFQTESPQSGSILTEETEVKGTLEGDVCGVEPPGPGDTVVQGDLQETTVVTGLGPDTQDLEGQSPPQSLPSTPKAAWIREEGRCSSSDDDTDVDMEGLRRRRGREAGPPQPMVPLAVENQAGGEGAGGELGISLNMCLLGALVLLGLGVLLFSGGLSESETGPMEEVERQVLPDPEVLEAVGDRQDGLREQLQAPVPPDSVPSLQNMGLLLDKLAKENQDIRLLQAQLQAQKEELQSLMHQPKGLEEENAQLRGALQQGEAFQRALESELQQLRARLQGLEADCVRGPDGVCLSGGRGPQGDKAIREQGPREQEPELSFLKQKEQLEAEAQALRQELERQRRLLGSVQQDLERSLQDASRGDPAHAGLAELGHRLAQKLQGLENWGQDPGVSANASKAWHQKSHFQNSREWSGKEKWWDGQRDRKAEHWKHKKEESGRERKKNWGGQEDREPAGRWKEGRPRVEESGSKKEGKRQGPKEPPRKSGSFHSSGEKQKQPRWREGTKDSHDPLPSWAELLRPKYRAPQGCSGVDECARQEGLTFFGTELAPVRQQELASLLRTYLARLPWAGQLTKELPLSPAFFGEDGIFRHDRLRFRDFVDALEDSLEEVAVQQTGDDDEVDDFEDFIFSHFFGDKALKKRSGKKDKHSQSPRAAGPREGHSHSHHHHHRG
With B1 the binding was “binds”.

Reference: paper PMC12229684
